Results on one substance are retold here after article PMC11361582.

Sequences of proteins named here, by UniProt entry; tags and fusion partners are left off. Residues count along the entry.
UniProt E1WAU5, residues 923-1259: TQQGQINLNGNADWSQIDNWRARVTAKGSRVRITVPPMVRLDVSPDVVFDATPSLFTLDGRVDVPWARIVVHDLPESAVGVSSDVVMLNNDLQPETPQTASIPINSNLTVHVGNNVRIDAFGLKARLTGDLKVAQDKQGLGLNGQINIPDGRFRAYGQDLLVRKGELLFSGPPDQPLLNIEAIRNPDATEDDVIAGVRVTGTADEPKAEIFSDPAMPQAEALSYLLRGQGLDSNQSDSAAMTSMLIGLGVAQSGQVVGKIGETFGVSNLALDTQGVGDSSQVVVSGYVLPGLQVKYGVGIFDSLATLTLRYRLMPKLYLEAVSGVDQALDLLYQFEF
UniProt E1WAU4, residues 21-265: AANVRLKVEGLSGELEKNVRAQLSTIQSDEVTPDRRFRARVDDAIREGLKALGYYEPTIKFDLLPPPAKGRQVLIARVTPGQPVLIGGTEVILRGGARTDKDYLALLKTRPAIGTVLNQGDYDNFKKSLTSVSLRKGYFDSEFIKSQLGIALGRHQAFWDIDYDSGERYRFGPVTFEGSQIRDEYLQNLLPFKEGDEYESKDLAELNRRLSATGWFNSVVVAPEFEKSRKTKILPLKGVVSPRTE

These are yes or no findings as the source states them, for the method shown. Binding seen in cells or lysates may run through a third protein. Some entries that bind do so weakly or less than the wild type.

For the assay, the target named is GST-tagged Salmonella Typhimurium TamB DUF490 domain (aa 923-1259) (Salmonella enterica serovar Typhimurium 14028s) (UniProt E1WAU5). As to the kind of experiment: pull-down; GST-tagged bait and N-terminally 6xHis-tagged prey co-expressed in one E. coli BL21 DE3 strain; lysate (0.1 x PBS, 50 mM EDTA, 1 mM DTT, about 1% Triton X-100; ATP and MgSO4 added, 37°C 10 min) bound to glutathione agarose 15 min at room temperature; washed 8 times with 50 mM Tris-Cl, 300 mM NaCl, 50 mM EDTA, pH 7.5 and twice with PBS; bound beads analysed by immunoblot with anti-GST and anti-His antibodies. (In general: In western blotting, separated proteins are transferred to a membrane and probed.)

On to “6xHis-tagged Salmonella Typhimurium TamA POTRA1-3 (aa 21-265) (from UniProt E1WAU4 21-265) (domain or fragment)”, for which the binding entry is listed as “binds”.
